{"source": "PubChem BioAssay AID720541", "about": "(National Center for Advancing Translational Sciences (NCATS), 2013)", "note": "The whole screen tested about 1,300 compounds, of which about 420 (32%) were called active. These results got no clear call from the source, so the numbers are uncertain. Calls come from the whole dose curve; as a rule, active = well fitted inhibition curve with a large enough effect; inconclusive = small, poorly fitted or top-dose-only effect; inactive = no such curve, though single readings can be large or run the other way. Potency is the fitted concentration of half-maximal effect.", "data": [{"target": "C-terminal-binding protein 1 (Homo sapiens) (UniProt Q13363)", "test": "qHTS for Inhibitors of the Phosphatase Activity of Eya2: Carboxyl-terminal binding protein (CtBP) Counterscreen for Cherry-picked Compounds; note: nearly all actives have a fitted effect of over 65% in size", "details": "purified CtBP enzyme activity, counterscreen to Eya2 phosphatase", "source_text": "The Eya protein family is an essential co-activator of the Six1 transcription factor. Six1 is a developmental gene that is abnormally re-expressed in a large percentage of breast cancers. This over-expression plays a causal role in the initiation and metastatic development of breast cancers. The Eya family of protein is also found to contain a unique HAD phosphatase domain with protein tyrosine phosphatase activity which can potentially play a role in Six1-mediated breast tumorigenesis. Recently, Eya2 is found to dephosphorylate the histone variant H2AX and direct cells towards DNA repair instead of apoptosis in the event of DNA damage.\nA 1536 well format, fluorescence based qHTS assay was developed and used to target the phosphatase activity of Eya2 (AID 488837). In addition, a CtBP counterscreen was developed using the AlphaScreen technology to evaluate compound selectivity to target […]. The data herein reports the activity of the cherry-picked compounds against the CtBP AlphaScreen. Compounds that are active or have > 100 fold selectivity vs. the Eya2 activity were excluded for further characterization. […]\nFour microliters of reagent (25 nM GST-E1A, 25 nM CtBP-6x HIS) was dispensed in a 1536 well Greiner plates. […] The AlphaScreen signal was obtained using the PerkinElmer EnVision plate reader using the 680 nm excitation and 520 - 620 nm emission filters. […]", "values": [{"smiles": "O=Cc1ccc(N(CCCl)CCCl)cc1", "Potency": "inconclusive: 12 µM"}]}]}
